Values from PubChem BioAssay AID1259276 (Sanger Institute, 2017).

- Test: 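Kinase knock-downs that reduce colorectal cancer cell viability alone or with anchor drugs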 (primary screen)
- Cell system: human C2BBe1 colorectal cancer cells
- Reagents: siRNA pool against human genes
- Challenge: DMSO vehicle, or one anchor drug: BYL719 at 1 µM, cetuximab at 5 µg/ml, or trametinib at 10 nM; exposure length not stated
- Measurement: 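Cell viability as a fraction of non-targeting control wells, mean of replicates, also as a control-based robust z-score, plus a synergy score for each anchor drug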
- Direction: viability robust z-score, siRNA alone and viability vs control, siRNA alone: higher = more viable cells after knock-down; synergy score with BYL719: higher = stronger combined killing with BYL719; synergy score with cetuximab: higher = stronger combined killing with cetuximab; synergy score with trametinib: higher = stronger combined killing with trametinib
- Hit rule: 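a siRNA pool tested without drug is essential if its viability robust z-score falls under -3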
- Meaning of the calls: active = essential (siRNA alone); inactive = no change (siRNA alone)
In all, the deposit lists 794 reagents; this is a part drawn at random. Over the whole deposit, 24 (3%) are marked active. 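Calls come only from the siRNA-alone arm; drug synergy scores do not affect them.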 Unmarked entries are inactive. No viability above 1 is reported: the scale is capped. No sequences are given here. Not stated in the record: the amount of reagent, the time to read-out.

gene	viability robust z-score, siRNA alone	viability vs control, siRNA alone	synergy score with BYL719	synergy score with cetuximab	synergy score with trametinib
CAMK2A (calcium/calmodulin dependent protein kinase II alpha)	0.472	1	0.00552	0.215	-0.0667
PDXK (pyridoxal kinase)	0.472	1	0.0323	-0.0115	-0.0667
MAP3K1 (mitogen-activated protein kinase kinase kinase 1)	0.309	0.99	-0.0986	-0.0216	0.109
MPP1 (MAGUK p55 scaffold protein 1)	0.472	1	-0.142	-0.0115	0.0481
TGFBR1 (transforming growth factor beta receptor 1)	0.472	1	-0.142	-0.0115	0.0106
EPHA2 (EPH receptor A2)	-0.0483	0.967	-0.17	-0.0439	-0.0973
CSNK2B (casein kinase 2 beta)	0.472	1	-0.0929	-0.0115	-0.0577
EPHB4 (EPH receptor B4)	0.472	1	-0.0546	-0.0115	-0.0667
PLK4 (polo like kinase 4)	-3.19 (active)	0.769	0.0854	-0.24	-0.167
MPP2 (MAGUK p55 scaffold protein 2)	0.472	1	-0.118	-0.0115	0.233
DGKG (diacylglycerol kinase gamma)	0.472	1	0.0192	-0.0115	-0.0667
TRPM7	0.472	1	0.0525	-0.0115	-0.0667
CHEK2 (checkpoint kinase 2)	0.472	1	-0.142	-0.0115	-0.0667
IKBKG	-3.32 (active)	0.761	0.0236	-0.221	-0.176
EPHB2 (EPH receptor B2)	-2.13	0.836	0.00364	-0.104	-0.22
IRAK2 (interleukin 1 receptor associated kinase 2)	0.472	1	-0.00405	-0.0115	-0.0667
PFKFB1 (6-phosphofructo-2-kinase/fructose-2,6-biphosphatase 1)	-1.41	0.881	0.243	0.11	0.0822
TGFBR2 (transforming growth factor beta receptor 2)	0.472	1	-0.11	0.0356	-0.0667
BMPR1B (bone morphogenetic protein receptor type 1B)	-0.72	0.925	-0.111	0.124	0.0779
MPP3 (MAGUK p55 scaffold protein 3)	-4.49 (active)	0.687	0.177	-0.279	-0.112

No new results follow: an excerpt of the list.
gene	viability robust z-score, siRNA alone	viability vs control, siRNA alone	synergy score with BYL719	synergy score with cetuximab	synergy score with trametinib
EPHB4 (EPH receptor B4)	0.472	1	-0.0546	-0.0115	-0.0667
PLK4 (polo like kinase 4)	-3.19 (active)	0.769	0.0854	-0.24	-0.167

Continued:
gene	viability robust z-score, siRNA alone	viability vs control, siRNA alone	synergy score with BYL719	synergy score with cetuximab	synergy score with trametinib
NR2F2 (nuclear receptor subfamily 2 group F member 2)	0.472	1	-0.0301	0.0662	-0.0667
IPMK (inositol polyphosphate multikinase)	0.242	0.985	-0.0705	-0.0258	-0.0802
PAK1 (p21 (RAC1) activated kinase 1)	0.472	1	0.305	0.106	-0.0667
RPS6KA4 (ribosomal protein S6 kinase A4)	-1.07	0.902	0.0864	-0.108	-0.125
EPHA3 (EPH receptor A3)	-0.676	0.928	0.109	-0.083	-0.134
TRIM27 (tripartite motif containing 27)	-0.99	0.908	-0.0618	-0.103	-0.153
PDGFRL (platelet derived growth factor receptor like)	0.472	1	-0.128	-0.0115	-0.0667
ROCK1 (Rho associated coiled-coil containing protein kinase 1)	0.472	1	-0.142	-0.0115	-0.0667
CDKL5 (cyclin dependent kinase like 5)	0.472	1	-0.00603	-0.0115	-0.0667
STK26 (serine/threonine kinase 26)	0.472	1	-0.0603	0.06	-0.0197
CAMK1D (calcium/calmodulin dependent protein kinase ID)	0.472	1	0.0431	0.0978	-0.0667
PRPS2 (phosphoribosyl pyrophosphate synthetase 2)	0.472	1	-0.12	0.117	-0.0667
STK17B (serine/threonine kinase 17b)	0.472	1	0.0759	0.00321	-0.0667
DCLK2 (doublecortin like kinase 2)	0.472	1	-0.142	0.0436	-0.0667
FOXP1 (forkhead box P1)	-0.541	0.936	0.00991	-0.0746	-0.115
PHKG2 (phosphorylase kinase catalytic subunit gamma 2)	0.472	1	-0.0893	-0.0115	-0.0667
STK11 (serine/threonine kinase 11)	-0.128	0.962	0.189	0.0718	-0.102
GK (glycerol kinase)	0.472	1	-0.0818	-0.0115	-0.0667
MASTL (microtubule associated serine/threonine kinase like)	0.472	1	-0.108	-0.0115	-0.0667
PRKAB2 (protein kinase AMP-activated non-catalytic subunit beta 2)	0.472	1	-0.0566	-0.0115	0.0586
PHKA2 (phosphorylase kinase regulatory subunit alpha 2)	0.472	1	0.129	-0.0115	-0.0667
GALK2 (galactokinase 2)	0.472	1	-0.0789	-0.0115	-0.0667
RYK (receptor like tyrosine kinase)	0.472	1	-0.0244	-0.0115	-0.036
AMHR2 (anti-Mullerian hormone receptor type 2)	0.472	1	0.0459	0.109	-0.0667
CDK17 (cyclin dependent kinase 17)	0.00626	0.971	0.0406	-0.0405	0.0165
EPHA7 (EPH receptor A7)	0.472	1	-0.0461	0.429	0.0411
PRKCQ (protein kinase C theta)	0.472	1	0.343	-0.0115	-0.0667
LMBR1 (limb development membrane protein 1)	0.472	1	0.00306	-0.0115	-0.0667
PLK1 (polo like kinase 1)	-3.32 (active)	0.761	0.261	0.0736	-0.0172
CSF1R (colony stimulating factor 1 receptor)	0.263	0.987	0.0641	0.727	0.0957
